Molecules are shown by their SMILES. What follows is the remainder of the data, with few or none of the hits. The source made the active and inactive calls. Calls come from the whole dose curve; as a rule, active = well fitted inhibition curve with a large enough effect; inconclusive = small, poorly fitted or top-dose-only effect; inactive = no such curve, though single readings can be large or run the other way.
% is set by controls: 0 for no effect and ±100 for the full control effect.

Amino acid sequences for entries named in this document (tags omitted).
UniProt P39748, whole entry, looked up: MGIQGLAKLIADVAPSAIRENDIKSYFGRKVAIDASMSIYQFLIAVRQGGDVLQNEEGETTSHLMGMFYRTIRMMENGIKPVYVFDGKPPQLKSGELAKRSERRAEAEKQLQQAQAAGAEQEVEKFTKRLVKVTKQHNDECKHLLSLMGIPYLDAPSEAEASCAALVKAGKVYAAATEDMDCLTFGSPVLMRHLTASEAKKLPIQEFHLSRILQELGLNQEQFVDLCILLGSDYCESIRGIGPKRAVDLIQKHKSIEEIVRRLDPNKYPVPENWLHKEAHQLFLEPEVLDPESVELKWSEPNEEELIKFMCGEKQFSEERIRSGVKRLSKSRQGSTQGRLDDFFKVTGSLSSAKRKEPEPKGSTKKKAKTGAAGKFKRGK

In this assay the target is Flap endonuclease 1 (Homo sapiens) (UniProt P39748). Nature of the assay: qHTS Assay for the Inhibitors of Human Flap endonuclease 1 (FEN1). Note: nearly all actives have a fitted effect of over 65% in size. The note with it: Recombinant FEN1 flap cleavage, fluorescence, 15 min; at 114 µM (top of the series). An excerpt: The major human flap endonuclease FEN1 is an efficient structure-specific enzyme that recognizes and cleaves a 5'-unannealed DNA flap. It belongs to the RAD2 family nucleases, which are involved in DNA metabolism and are highly conserved in prokaryotes and eukaryotes. FEN1 is a key enzyme in DNA replication, repair and maintenance of genomic stability. 5'-flap removal by FEN1 is critical for Okazaki fragment processing during lagging strand DNA synthesis, long-patch base excision repair (LP BER), and regulating or facilitating recombination events. […] Deletion of the yeast FEN1 gene, i.e. rad27, results in an increased frequency of short DNA (3-32 bp) repeats, micro- and mini-satellite formation, trinucleotide repeat expansion, spontaneous recombination events, and a severe growth defect in association with cell cycle arrest in late S/G2 phase. […]
Three uL of reagents (buffer in column 3 and 4 as negative control and 10 nM FEN1 in columns 1, 2, and 5-48) were dispensed into 1,536-well black solid-bottomed plate. […] The plates were then incubated for 15 min at room temperature, and 1 uL substrate (50 nM final concentration) were added to start the reaction read twice at 0 min read and 15 min on ViewLux reader. […]
In general terms: qHTS replaces the single test concentration by a dilution series.
In the case of `CN1[C@@H]2CC[C@H]1CC(OC(=O)C(O)c1ccccc1)C2` (stereo partly specified), the activity change, negative = inhibition was inactive: 3.27%.
